From publication PMC4463644

Biological target: SNAMA (D. melanogaster (endogenous in 0-6 h embryos))
Assay: affinity purification with mass spectrometry; co-immunoprecipitation from 1 mg crude extract of 0-6 h embryos with 15 ug chicken anti-SNAMA DCM antibody, captured on chicken IgY precipitating resin; SDS-PAGE bands absent from the control with pre-adsorbed pre-immune serum identified by LC-MS/MS

binding: binds
B1: DNA replication-related element factor (DREF) (protein, UniProt Q94883 1-709)
chain: MSEGVPASPVAIGELKYEDVSQLNFSKLYSPKMKSVYWRYFGFPSNDNNEVITKQNVVCIKCHKVLTNHGNTTNLRAHLQHRHKDLFKELCQEHDIHVPPRKTPRNVSHPPLSKRNVSSRRVKLEFINNRNHDNASDDELDEAAVATAAMQAEEDASSQTMLYETMVPFTYDEAENLVEEEERLVMEPKYGRKRKVATPSSALMHGRVIKHEEGGYAAVANIANLAEALTDIVIKDLRNVDSLYDAGFGEFLRQVLGNSAAMPEPHKIDSLINEMHASKFLEIGEITRDFTSEKPFSLAFEMWVNVEQRRFLSIFHHFLDEETHSVRGMLYATVEYNDYIVFDDLLTDFYLANCTLAIINYDEEEDLLHTYLREKNIPISLCYVSVIDKCLRRVFEIEEVATLLEQVKDLMQRHSTEIASKVSEVPMPTYNEHFPWTLYETLKFFAESISWSEDMDHLVISAKTVTEALSALVIALDTLRGEDIPLCSMLSPITSKILIKKLGIAEQDDPLMMNLKRTISSVLQAHVISNDNLTAAALLDPRFHRLTTIDNLERTVRMLTHKYNINFGGVGEGESNEVAATSSVVAIKSEPRVVDGSAPKKLGLKLLFDSNEIPNPPKRDADSSVESDLKRYRNEVVVQLDESPIEWWLKMGHIYGTLRDLASLYHSVPGVVTLSFKKALRDQIYDFNKRFMLTGSHIDAILFLHHHNN

binding: binds
B2: Glycogen phosphorylase (protein, UniProt Q9XTL9 1-844)
chain: MSKPQSDADRRKQISVRGIAEVGNVTEVKKNFNRHLHYTLVKDRNVSTLRDYYFALANTVKDNMVGRWIRTQQHYYEKDPKRVYYLSLEYYMGRSLTNTMINLGIQSECEEAMYQLGLDIENLEEMEEDAGLGNGGLGRLAACFLDSMATLGLAAYGYGIRYEYGIFAQKIKNGEQVEEPDDWLRYGNPWEKARPEFMLPVNFYGRVIDTPEGKKWVDTQRVFAMPYDNPIPGYNNNHVNTLRLWSAKSPIDFNLKFFNDGDYIQAVLDRNLAENISRVLYPNDNFFEGKELRLKQEYFMCAATLQDIIRRYKASKFGSREAVRNTFDHFPDKVAIQLNDTHPSLAIPELMRILVDEEHLTWEKAWDITVRSCAYTNHTVLPEALERWPVSLLESILPRHLQIIYHINFLHMENVKKKFPDDLDRMRRMSMVEEDGEKRINMAHLSIVGSHAVNGVAAIHSQILKDSLFHDFYEMEPQKFQNKTNGITPRRWLLLCNPGLSDLIAEKIGDEWPVHLDQLVALKKWAKDPNFQRNVARVKQENKLKLAAILEKDYGVKINPSSMFDIQVKRIHEYKRQLLNCLHIITLYNRIKKDPTANFTPRTIMIGGKAAPGYYVAKQIIKLICAVGNVVNNDPIVGDKLKVIFLENYRVTLAEKIMPAADLSEQISTAGTEASGTGNMKFQLNGALTIGTLDGANVEMAEEMGLDNIFIFGMTVDEVEALKKKGYNAYDYYNANPEVKQVIDQIQGGFFSPGNPNEFKNIADILLKYDHYYLLADYDAYIKAQDLVSKTYQNQAKWLEMSINNIASSGKFSSDRTIAEYAREIWGVEPTWEKLPAPEDQPQN

No constants are given. Whether binding was seen depends on the method and setting. Binding seen in cells or lysates may run through a third protein. Here binding means that the protein was enriched with, or labelled near, the bait; the list need not be complete. Each block holds one binder with its values, some of them ahead of it.
